From ChEMBL document CHEMBL4261608, “Design, synthesis and anti-mycobacterial activity evaluation of benzofuran-isatin hybrids” (Eur J Med Chem, 2018)
Converted amounts (≈) assume the structure as drawn.

System: Mycobacterium tuberculosis
Experiment: Antimycobacterial activity against Mycobacterium tuberculosis H37Rv incubated for 7 days by rapid direct susceptibility test
Assay type: functional
Settings: 168 h
How it was run: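 Two-fold dilutions of compound mixed with MTB suspension holding 4×10^-3 mg cells (H37Rv, or MDR strain resistant to ethambutol, INH and RIF) in 48-well plates. Incubation at 37 °C in a wet box. Cells in each well observed by continuous visual high-magnification system, re-read 7 days later. MIC taken as lowest concentration inhibiting visible growth.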

Which MIC does the source give for `CO[C@H]1/C=C/O[C@@]2(C)Oc3c(C)c(O)c4c(O)c(c(/C=N/N5CCN(C)CC5)c(O)c4c3C2=O)NC(=O)/C(C)=C\C=C\[C@H](C)[C@H](O)[C@@H](C)[C@@H](O)[C@@H](C)[C@H](OC(C)=O)[C@@H]1C` [RIFAMPIN] here?
Its MIC is 0.5 µg/mL (≈ 0.608 µM).
